# No constants are given. Whether binding was seen depends on the method and setting. Binding seen in cells or lysates may run through a third protein. Some entries that bind do so weakly or less than the wild type.
# Amino acid sequences for entries named in this document (tags omitted).
# UniProt B0LPN4: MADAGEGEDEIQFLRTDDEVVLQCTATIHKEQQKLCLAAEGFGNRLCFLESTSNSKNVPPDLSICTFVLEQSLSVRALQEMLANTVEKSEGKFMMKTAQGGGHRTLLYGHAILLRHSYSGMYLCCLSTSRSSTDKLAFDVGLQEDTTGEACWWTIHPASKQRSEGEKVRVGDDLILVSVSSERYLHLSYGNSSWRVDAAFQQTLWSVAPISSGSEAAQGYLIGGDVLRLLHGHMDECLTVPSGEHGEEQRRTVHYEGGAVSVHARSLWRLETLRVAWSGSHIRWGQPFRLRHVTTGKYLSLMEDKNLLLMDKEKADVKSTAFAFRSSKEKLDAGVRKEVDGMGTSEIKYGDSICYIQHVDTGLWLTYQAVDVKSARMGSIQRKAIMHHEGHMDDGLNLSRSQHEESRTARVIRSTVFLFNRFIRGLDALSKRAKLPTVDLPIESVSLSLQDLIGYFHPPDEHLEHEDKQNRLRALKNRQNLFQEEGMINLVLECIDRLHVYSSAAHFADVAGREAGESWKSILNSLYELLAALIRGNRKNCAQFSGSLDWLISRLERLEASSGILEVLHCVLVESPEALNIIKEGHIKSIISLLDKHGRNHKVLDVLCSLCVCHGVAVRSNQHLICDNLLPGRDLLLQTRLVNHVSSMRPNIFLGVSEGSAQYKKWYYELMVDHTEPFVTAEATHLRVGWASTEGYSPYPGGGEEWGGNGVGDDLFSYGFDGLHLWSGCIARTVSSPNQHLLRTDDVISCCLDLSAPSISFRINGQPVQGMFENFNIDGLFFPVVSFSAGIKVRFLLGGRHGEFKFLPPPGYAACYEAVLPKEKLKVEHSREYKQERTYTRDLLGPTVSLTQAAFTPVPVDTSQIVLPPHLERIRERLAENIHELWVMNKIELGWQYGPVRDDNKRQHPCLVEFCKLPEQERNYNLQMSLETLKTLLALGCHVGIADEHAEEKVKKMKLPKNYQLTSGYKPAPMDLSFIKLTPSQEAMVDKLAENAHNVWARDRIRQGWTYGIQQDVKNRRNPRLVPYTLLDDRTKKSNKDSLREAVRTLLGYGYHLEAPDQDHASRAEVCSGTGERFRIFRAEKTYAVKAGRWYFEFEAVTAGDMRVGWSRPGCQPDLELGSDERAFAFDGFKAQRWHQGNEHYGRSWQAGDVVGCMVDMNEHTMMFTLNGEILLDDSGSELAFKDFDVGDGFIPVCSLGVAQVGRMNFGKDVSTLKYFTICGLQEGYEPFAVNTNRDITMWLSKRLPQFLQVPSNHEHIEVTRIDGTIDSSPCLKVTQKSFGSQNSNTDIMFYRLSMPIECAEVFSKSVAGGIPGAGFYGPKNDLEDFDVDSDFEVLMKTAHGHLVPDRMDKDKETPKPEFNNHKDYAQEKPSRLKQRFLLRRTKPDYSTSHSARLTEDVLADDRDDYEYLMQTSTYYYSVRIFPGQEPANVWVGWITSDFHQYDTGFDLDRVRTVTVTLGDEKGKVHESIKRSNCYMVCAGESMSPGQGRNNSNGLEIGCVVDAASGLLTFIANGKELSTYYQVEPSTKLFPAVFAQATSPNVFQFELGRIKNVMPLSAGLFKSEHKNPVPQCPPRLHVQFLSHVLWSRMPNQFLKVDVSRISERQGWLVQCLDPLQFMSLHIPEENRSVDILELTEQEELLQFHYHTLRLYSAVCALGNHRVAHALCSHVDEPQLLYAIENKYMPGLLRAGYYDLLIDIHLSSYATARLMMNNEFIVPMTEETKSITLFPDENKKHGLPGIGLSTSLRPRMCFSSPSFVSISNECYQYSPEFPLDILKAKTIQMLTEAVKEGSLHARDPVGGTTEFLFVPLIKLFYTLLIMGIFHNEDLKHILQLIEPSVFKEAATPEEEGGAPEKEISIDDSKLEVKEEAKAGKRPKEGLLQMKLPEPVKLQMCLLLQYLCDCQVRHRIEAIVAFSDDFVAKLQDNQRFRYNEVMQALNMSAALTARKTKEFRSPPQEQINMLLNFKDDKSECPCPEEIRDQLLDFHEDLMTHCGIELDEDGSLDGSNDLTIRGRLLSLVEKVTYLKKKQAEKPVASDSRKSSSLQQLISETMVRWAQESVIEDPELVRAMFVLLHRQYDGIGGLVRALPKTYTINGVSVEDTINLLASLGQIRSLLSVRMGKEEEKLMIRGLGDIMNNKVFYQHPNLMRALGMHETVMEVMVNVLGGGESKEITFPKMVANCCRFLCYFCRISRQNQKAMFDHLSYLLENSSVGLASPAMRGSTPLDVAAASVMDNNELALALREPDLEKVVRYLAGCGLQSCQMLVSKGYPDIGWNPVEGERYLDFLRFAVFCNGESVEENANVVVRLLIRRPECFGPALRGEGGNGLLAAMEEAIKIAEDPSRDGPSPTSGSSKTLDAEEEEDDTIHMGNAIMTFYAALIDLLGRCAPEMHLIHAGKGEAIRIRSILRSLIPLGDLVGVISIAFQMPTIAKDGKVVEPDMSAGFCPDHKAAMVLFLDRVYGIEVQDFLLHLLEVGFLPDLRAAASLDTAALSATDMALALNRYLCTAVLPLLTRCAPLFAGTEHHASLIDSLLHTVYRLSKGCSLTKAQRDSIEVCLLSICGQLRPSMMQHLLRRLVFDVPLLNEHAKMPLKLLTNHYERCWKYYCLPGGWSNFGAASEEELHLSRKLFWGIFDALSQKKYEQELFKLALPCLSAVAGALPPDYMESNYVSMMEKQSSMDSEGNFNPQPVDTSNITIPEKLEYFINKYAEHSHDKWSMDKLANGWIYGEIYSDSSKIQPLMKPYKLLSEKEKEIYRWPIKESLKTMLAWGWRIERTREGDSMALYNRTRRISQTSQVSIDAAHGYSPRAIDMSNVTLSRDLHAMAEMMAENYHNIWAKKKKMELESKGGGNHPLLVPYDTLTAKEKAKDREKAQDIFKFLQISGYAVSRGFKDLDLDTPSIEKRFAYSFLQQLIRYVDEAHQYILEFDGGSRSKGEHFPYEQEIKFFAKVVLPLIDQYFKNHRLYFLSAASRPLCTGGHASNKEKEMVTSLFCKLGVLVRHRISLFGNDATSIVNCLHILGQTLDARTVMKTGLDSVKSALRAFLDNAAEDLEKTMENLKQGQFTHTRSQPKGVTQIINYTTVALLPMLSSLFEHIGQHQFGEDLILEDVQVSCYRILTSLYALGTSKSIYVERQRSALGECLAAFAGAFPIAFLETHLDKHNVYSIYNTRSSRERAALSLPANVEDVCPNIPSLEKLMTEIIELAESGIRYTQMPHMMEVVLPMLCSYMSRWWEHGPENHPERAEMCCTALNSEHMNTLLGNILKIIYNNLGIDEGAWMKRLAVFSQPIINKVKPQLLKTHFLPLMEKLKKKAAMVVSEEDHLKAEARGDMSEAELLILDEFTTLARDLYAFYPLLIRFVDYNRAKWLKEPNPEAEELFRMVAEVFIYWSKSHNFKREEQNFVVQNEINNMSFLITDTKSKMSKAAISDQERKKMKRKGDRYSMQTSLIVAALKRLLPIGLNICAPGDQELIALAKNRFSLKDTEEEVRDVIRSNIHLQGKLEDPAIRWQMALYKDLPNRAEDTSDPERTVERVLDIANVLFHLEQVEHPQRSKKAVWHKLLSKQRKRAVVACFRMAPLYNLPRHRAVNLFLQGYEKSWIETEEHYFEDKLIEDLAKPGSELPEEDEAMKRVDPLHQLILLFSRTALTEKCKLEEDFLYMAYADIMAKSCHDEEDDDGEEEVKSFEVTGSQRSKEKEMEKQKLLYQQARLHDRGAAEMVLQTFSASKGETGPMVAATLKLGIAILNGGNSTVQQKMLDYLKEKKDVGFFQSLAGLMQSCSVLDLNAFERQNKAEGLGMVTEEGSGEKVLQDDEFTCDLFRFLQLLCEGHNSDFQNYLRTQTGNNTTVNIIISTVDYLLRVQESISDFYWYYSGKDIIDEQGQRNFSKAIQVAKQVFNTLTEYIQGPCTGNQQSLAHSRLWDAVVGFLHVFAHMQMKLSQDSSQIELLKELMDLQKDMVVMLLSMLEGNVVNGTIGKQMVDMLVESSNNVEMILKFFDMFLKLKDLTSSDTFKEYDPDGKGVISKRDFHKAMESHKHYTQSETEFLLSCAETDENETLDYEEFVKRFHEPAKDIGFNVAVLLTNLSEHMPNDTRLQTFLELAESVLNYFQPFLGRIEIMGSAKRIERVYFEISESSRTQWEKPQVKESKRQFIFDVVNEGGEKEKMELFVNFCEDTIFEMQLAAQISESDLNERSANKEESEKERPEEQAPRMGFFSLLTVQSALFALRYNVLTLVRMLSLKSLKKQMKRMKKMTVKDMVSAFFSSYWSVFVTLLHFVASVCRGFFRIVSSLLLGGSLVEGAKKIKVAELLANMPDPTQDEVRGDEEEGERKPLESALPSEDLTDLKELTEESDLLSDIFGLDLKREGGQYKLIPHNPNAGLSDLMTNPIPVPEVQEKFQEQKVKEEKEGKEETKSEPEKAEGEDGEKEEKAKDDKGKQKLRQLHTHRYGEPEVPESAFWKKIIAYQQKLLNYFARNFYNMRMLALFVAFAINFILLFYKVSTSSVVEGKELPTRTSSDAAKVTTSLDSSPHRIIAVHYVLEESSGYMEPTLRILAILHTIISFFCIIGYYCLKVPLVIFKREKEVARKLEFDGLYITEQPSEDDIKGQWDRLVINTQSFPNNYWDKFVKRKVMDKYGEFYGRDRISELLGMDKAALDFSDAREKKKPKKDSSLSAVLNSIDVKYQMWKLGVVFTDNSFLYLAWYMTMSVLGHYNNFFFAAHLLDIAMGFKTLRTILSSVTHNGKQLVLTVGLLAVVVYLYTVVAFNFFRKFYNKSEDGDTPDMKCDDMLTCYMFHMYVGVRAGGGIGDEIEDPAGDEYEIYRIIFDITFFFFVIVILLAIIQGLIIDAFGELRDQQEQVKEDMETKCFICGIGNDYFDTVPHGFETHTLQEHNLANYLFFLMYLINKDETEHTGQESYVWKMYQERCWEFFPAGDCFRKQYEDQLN
# UniProt P97534: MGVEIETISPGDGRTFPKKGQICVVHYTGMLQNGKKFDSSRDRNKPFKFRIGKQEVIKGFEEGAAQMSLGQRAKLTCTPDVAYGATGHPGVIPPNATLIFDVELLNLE
# Legend:
# [1] = molecular target: RyR2 (ryanodine receptor 2), rat (rat) (UniProt B0LPN4); assay: co-immunoprecipitation of RyR2 and immunoblot for calstabin, shMRP4 treated cardiac myocytes
# [2] = molecular target: RyR2 (ryanodine receptor 2), rat (rat) (UniProt B0LPN4); assay: co-immunoprecipitation of RyR2 and immunoblot for calstabin, adult rat ventricular myocytes infected with AdshMRP4 vs AdshLuc
substance,measurement,setting,value
"calstabin2 (FKBP12.6), rat (from UniProt P97534 1-108)",binding,[1],binds
same,binding,[2],binds

# Reference: US20110218232A1
